Measurements: article PMC3558359
Results are given in words; binding and its absence hold for the method and conditions named. Binding seen in cells or lysates may run through a third protein. Some entries that bind do so weakly or less than the wild type.

By UniProt entry, the sequences of proteins in these tests, tags left out. Where a name states a change or a piece, a line headed by the entry shows the natural chain unless it says otherwise.
UniProt P05556: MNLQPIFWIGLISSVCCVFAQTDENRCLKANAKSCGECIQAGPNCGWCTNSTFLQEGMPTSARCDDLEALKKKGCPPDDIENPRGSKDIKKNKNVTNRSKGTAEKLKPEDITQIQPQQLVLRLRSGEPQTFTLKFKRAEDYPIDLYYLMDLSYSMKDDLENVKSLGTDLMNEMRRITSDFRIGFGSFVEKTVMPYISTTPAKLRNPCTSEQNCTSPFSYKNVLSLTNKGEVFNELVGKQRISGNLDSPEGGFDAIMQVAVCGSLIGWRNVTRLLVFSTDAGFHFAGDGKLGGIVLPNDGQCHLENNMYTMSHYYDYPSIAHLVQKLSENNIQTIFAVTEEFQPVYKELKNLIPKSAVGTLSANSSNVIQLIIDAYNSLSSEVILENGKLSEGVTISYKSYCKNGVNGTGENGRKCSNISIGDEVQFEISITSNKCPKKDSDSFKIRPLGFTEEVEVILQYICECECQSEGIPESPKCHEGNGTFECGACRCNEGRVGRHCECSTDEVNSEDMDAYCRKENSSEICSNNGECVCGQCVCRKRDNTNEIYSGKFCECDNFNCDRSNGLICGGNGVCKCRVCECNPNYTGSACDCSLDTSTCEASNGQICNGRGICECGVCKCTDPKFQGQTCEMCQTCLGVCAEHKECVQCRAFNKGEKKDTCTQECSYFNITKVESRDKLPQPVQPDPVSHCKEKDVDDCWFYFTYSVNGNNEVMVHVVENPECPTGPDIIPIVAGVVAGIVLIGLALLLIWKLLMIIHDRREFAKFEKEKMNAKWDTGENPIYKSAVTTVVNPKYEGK

Target: Phosphatase of regenerating liver-3 (PRL-3), endogenous (human (endogenous in BGC823 and SW480)) (UniProt O75365)
Assay: co-IP; lysates (500 μg) of BGC823 or SW480 cells precipitated with 1 μg PRL-3 monoclonal antibody or pre-immune mouse IgG on protein G-Sepharose, blot for integrin β1; lysis buffer 50 mM HEPES pH 8.0, 150 mM NaCl, 1% Triton X-100, 4°C; also BGC823 cells after integrin α1 siRNA or control siRNA (more integrin β1 precipitated upon integrin α1 silencing)

## integrin β1, endogenous (from UniProt P05556 21-798) (receptor)
  binding: binds
